# At least one compound was matched to its structure with a doubt left.
# Test system: B16.F10 ELN melanoma cells
# Assay: Experimental lung metastasis model, luciferase assay of lung homogenates
# Format: in vivo
# Conditions: long-term LysoPC group, mean quoted against outlier mouse 1179/09
# Method: Generation of luciferase expressing B16.F10 melanoma cells: For sensitive detection of metastases in vivo in lung and other murine tissues, stably luciferase-transduced B16.F10 ELN melanoma cells were established as recently described (Bornmann, C. et al., Cancer Chemother. Pharmacol. 61:395-405 (2008)).
# Animal experiments: Lung metastases were induced by injecting 3×10^5 cells in 100 μl PBS into the tail vein of male C57BI/6N mice (Charles River Laboratories, Sulzfeld, Germany) (Ludwig, R. J. et al., Cancer Res. 64:2743-2750 (2004)). […] Metastatic lesions were quantified by homogenizing the tissues in luciferase lysis buffer and measuring in a luciferase assay (Promega E1501) as described (Jantscheff, P. et al., Establishment of human orthotopic LNCaP prostate cancer xenograft metastases model: Effect of Gemcitabine and GemLip. Clin. Exp. Metastasis: in press (2009); Jantscheff, P. et al., Prostate 69:1151-1163 (2009)).
# Example 4: Inhibition of in vivo metastasis of B16.F10 ELN cells pretreated with LysoPC. […] For a sensitive quantitative analysis of metastatic spread in the lung, luciferase-transduced B16.F10 ELN cells were used. […]
smiles,measurement,value
CCCCCCCCCCCCCCCCC(=O)OC[C@@H](O)COP(=O)([O-])OCC[N+](C)(C)C [LysoPC],"luciferase activity of lung homogenates, mean",1.698.601 RLU

# Source: patent publication US20130012473A1, “COMBINED USE OF PHOSPHOLIPID AND SULFATE GROUPS-CARRYING POLYSACCHARIDES FOR INHIBITING METASTATIC SPREAD” (KTB TUMORFORSCHUNGSGESELLSCHAFT MBH, priority 2010, published 2013)
